From publication PMC8366970 come the findings set out here.

Amino acid sequences for entries named in this document (tags omitted). A change or cut given only in a name is not applied to a line headed by its entry.
UniProt Q8ILP4: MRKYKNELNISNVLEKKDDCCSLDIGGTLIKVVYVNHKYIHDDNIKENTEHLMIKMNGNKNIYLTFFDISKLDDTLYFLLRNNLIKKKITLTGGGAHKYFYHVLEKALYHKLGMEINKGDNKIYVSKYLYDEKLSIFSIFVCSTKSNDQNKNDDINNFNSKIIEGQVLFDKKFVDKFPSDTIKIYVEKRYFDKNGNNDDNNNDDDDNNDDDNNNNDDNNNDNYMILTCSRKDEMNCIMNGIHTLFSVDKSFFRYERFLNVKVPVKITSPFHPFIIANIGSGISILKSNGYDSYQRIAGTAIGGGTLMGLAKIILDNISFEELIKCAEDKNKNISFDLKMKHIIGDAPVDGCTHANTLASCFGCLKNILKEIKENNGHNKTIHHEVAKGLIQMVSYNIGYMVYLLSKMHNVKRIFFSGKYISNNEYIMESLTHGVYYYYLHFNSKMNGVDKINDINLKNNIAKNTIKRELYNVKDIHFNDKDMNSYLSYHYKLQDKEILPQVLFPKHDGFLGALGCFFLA
UniProt Q8IL92: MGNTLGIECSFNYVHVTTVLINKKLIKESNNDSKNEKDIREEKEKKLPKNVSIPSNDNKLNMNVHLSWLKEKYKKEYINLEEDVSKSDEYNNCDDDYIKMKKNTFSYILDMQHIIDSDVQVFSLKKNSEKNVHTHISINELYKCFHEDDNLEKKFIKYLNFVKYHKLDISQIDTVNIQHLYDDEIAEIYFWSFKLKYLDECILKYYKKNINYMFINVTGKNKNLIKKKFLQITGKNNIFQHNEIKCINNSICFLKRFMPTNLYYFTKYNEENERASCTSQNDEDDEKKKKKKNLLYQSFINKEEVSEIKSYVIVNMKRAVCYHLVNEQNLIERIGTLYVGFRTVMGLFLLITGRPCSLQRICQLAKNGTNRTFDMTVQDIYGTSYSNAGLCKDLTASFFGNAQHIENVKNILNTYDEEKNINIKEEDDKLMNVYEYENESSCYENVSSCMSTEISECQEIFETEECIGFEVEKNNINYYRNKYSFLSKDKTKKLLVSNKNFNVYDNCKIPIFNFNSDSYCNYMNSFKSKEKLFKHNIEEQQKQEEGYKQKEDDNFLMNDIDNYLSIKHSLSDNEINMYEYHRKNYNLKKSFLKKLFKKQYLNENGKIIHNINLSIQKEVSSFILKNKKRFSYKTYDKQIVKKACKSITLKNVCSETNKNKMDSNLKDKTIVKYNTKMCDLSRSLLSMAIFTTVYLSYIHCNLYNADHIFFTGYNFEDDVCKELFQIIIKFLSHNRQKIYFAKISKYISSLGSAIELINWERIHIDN

The target in assay [1] is TgPanK2-mAIDHA (Toxoplasma gondii) (UniProt V5B595). Kind of assay: co-IP; GFP-Trap and anti-HA beads on T. gondii tachyzoite lysates; denaturing western blots with anti-GFP, anti-HA and pan-14-3-3 antibodies.
Assay [2] deals with TgPanK2-GFP (Toxoplasma gondii) (UniProt V5B595). Described as above.
Assay [3] addresses PfPanK1-GFP (Plasmodium falciparum) (UniProt Q8ILP4). As to the kind of experiment: co-IP; GFP-Trap immunoprecipitation from lysates of saponin-isolated P. falciparum trophozoites; denaturing western blot with pan-specific anti-14-3-3 antibody.
In assay [4] the target is PfPanK2-GFP (Plasmodium falciparum) (UniProt Q8IL92). Described as above.

No constants are given. Whether binding was seen depends on the method and setting. In cells and extracts the contact can be indirect. Binding can be weak; no strength is given.

With “TgPanK1-GFP (from UniProt A0A125YTW9) (enzyme)”, in assay [1], the binding result was “binds”.
For the molecule “TgPanK1-HA (from UniProt A0A125YTW9) (enzyme)”, the binding entry in assay [2] is on record as “binds”.

B1: Pf14-3-3I (protein, UniProt C0H4V6 1-262)
chain: MATSEELKQLRCDCTYRSKLAEQAERYDEMADAMRTLVEQCVNNDKDELTVEERNLLSVAYKNAVGARRASWRIISSVEQKEMSKANVHNKNVAATYRKKVEEELNNICQDILNLLTKKLIPNTSESESKVFYYKMKGDYYRYISEFSCDEGKKEASNCAQEAYQKATDIAENELPSTHPIRLGLALNYSVFFYEILNQPHQACEMAKRAFDDAITEFDNVSEDSYKDSTLIMQLLRDNLTLWTSDLQGDQTEEKSKDEGLE
For the molecule B1, the binding entry in assay [3] and in assay [4] was “binds” throughout.
